The values below come from ChEMBL document CHEMBL4715803, “Synthetic Studies of Neoclerodane Diterpenes from Salvia divinorum: Identification of a Potent and Centrally Acting μ Opioid Analgesic with Reduced Abuse Liability” (J Med Chem, 2016).

The assay has as its system Mus musculus. Kind of assay: Antinociceptive activity in male B6-SJL mouse administered subcutaneously daily for 9 days and measured on day 9 by warm water tail-flick assay. In general terms: Hot-plate and tail-flick tests time the reaction to a heat stimulus.

`CN1CC[C@]23c4c5ccc(O)c4O[C@H]2[C@@H](O)C=C[C@H]3[C@H]1C5` [MORPHINE] had an EC50 of 11.6 mg/kg.
